Results are given in words; binding and its absence hold for the method and conditions named. Binding seen in cells or lysates may run through a third protein. A yes stands for co-enrichment or nearness to the bait. Other partners may have been found. For part of these data: No binding means not detected with the bait. For part of these data: Tags and fused reporters may be left off the sequences shown.

By UniProt entry, the sequences of proteins in these tests, tags left out.
UniProt Q02455: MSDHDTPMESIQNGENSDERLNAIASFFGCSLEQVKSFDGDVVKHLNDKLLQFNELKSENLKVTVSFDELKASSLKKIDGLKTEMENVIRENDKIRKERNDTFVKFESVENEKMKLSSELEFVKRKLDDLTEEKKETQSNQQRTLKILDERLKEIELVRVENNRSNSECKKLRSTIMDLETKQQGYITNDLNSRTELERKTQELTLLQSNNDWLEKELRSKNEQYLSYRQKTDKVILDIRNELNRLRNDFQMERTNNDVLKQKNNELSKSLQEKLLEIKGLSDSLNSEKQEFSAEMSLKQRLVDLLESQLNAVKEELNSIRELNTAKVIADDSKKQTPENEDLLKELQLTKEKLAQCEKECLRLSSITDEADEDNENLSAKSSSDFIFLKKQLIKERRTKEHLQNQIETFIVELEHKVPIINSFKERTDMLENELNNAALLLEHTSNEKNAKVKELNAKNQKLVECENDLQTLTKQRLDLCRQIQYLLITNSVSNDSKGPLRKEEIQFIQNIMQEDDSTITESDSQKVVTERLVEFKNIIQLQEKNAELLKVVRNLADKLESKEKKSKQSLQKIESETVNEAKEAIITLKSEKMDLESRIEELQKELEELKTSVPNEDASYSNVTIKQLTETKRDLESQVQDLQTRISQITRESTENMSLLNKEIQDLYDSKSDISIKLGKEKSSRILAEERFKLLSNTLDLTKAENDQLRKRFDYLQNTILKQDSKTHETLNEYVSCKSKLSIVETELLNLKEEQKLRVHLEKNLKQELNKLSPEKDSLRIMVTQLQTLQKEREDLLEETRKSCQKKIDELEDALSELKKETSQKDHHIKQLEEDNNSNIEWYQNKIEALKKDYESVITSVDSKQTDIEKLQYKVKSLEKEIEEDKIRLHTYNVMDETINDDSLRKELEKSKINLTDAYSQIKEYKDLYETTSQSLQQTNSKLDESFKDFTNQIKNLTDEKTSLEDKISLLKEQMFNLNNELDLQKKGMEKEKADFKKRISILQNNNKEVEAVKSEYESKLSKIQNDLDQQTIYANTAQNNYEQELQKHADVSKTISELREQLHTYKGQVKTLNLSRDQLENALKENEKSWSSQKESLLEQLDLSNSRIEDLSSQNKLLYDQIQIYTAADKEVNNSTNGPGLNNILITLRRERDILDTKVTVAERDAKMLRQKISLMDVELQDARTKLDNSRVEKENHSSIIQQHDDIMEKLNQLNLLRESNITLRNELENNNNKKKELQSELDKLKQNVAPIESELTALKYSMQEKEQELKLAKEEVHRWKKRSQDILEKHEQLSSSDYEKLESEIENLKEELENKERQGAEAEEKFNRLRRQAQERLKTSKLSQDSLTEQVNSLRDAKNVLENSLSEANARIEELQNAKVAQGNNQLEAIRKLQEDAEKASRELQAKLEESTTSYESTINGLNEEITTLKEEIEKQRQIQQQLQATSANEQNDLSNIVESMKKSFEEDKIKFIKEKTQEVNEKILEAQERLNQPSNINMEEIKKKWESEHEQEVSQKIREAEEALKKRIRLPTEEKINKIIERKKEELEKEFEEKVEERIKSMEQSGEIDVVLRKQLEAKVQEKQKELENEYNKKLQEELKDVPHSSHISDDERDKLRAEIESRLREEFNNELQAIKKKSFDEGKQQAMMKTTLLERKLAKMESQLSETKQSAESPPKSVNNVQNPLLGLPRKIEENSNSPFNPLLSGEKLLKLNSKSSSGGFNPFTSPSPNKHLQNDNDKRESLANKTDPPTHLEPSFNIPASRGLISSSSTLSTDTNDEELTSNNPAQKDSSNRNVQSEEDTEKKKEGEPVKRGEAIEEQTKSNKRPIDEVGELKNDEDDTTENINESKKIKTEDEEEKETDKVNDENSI

B1: Sus1 (protein, UniProt Q6WNK7 1-96)
chain: MTMDTAQLKSQIQQYLVESGNYELISNELKARLLQEGWVDKVKDLTKSEMNINESTNFTQILSTVEPKALEMVSDSTRETVLKQIREFLEEIVDTQ
B2: Thp1 (protein, UniProt Q08231 1-455)
chain: MDMANQLLDELAHGNFSHLTLNLSQNGREIAILQKQLTGFDDKQLETFVEQHPAMPNDTRFKIMCTSFLNYARDVDPWSAWSSSDLIFEFYQCLINCLINDNAPHIEMLIPVATRETEFIINLAGKLDSFHLQLHTRSHQFLSHISSILSRLFNSIKPPRGNASSTNIPGKQRILLYLVNKLNNIYFRIESPQLCSNIFKNFQPKSMLAHFNEYQLDQQIEYRYLLGRYYLLNSQVHNAFVQFNEAFQSLLNLPLTNQAITRNGTRILNYMIPTGLILGKMVKWGPLRPFLSQETIDNWSVLYKHVRYGNIQGVSLWLRQNERHLCARQLLIVLLEKLPMVTYRNLIKTVIKSWTTEWGQNKLPYSLIERVLQLSIGPTFEDPGAQEITIYNGIHSPKNVENVLVTLINLGLLRANCFPQLQLCVVKKTTMIQEIVPPVNERITKMFPAHSHVLW
B3: Cdc31 (protein, UniProt P06704 1-161)
chain: MSKNRSSLQSGPLNSELLEEQKQEIYEAFSLFDMNNDGFLDYHELKVAMKALGFELPKREILDLIDEYDSEGRHLMKYDDFYIVMGEKILKRDPLDEIKRAFQLFDDDHTGKISIKNLRRVAKELGETLTDEELRAMIEEFDLDGDGEINENEFIAICTDS
B4: Sac3 (protein, UniProt P46674 1-1301)
chain: MNTSFGSVVPSTNFNFFKGHGNNDNTSANSTVNNSNFFLNSNETKPSKNVFMVHSTSQKKSQQPLQNLSHSPSYTENKPDKKKKYMINDAKTIQLVGPLISSPDNLGFQKRSHKARELPRFLINQEPQLEKRAFVQDPWDKANQEKMISLEESIDDLNELYETLKKMRNTERSIMEEKGLVDKADSAKDLYDAIVFQGTCLDMCPTFERSRRNVEYTVYSYEKNQPNDKKASRTKALKVFARPAAAAAPPLPSDVRPPHILVKTLDYIVDNLLTTLPESEGFLWDRMRSIRQDFTYQNYSGPEAVDCNERIVRIHLLILHIMVKSNVEFSLQQELEQLHKSLITLSEIYDDVRSSGGTCPNEAEFRAYALLSKIRDPQYDENIQRLPKHIFQDKLVQMALCFRRVISNSAYTERGFVKTENCLNFYARFFQLMQSPSLPLLMGFFLQMHLTDIRFYALRALSHTLNKKHKPIPFIYLENMLLFNNRQEIIEFCNYYSIEIINGDAADLKTLQHYSHKLSETQPLKKTYLTCLERRLQKTTYKGLINGGEDNLASSVYVKDPKKDRIPSIADQSFLMENFQNNYNEKLNQNSSVKPQINTSPKRVATRPNHFPFSQESKQLPQISQSHTLSTNPLLTPQVHGDLSEQKQQQIKTVTDGGSPFVFDQSAQNSTVEASKAHMISTTSNGAYDEKLSSEQEEMRKKEEQRIEEEKTQLKKKQENADKQVITEQIANDLVKEVVNSSVISIVKREFSEANYRKDFIDTMTRELYDAFLHERLYLIYMDSRAELKRNSTLKKKFFEKWQASYSQAKKNRILEEKKREEIKLVSHQLGVPGFKKSTCLFRTPYKGNVNSSFMLSSSDKNLIFSPVNDEFNKFATHLTKISKLWRPLEMQSIYYDNLTKKFPSNSLTPANLFIYAKDWTSLSNRWILSKFNLQTAQDSKKFSNNIISSRIICIDDEYEPSDFSDLQLLIFNTGVTNPDIFDLEMKLKDDGEELIKLITGISLNTNICFSLLIIYWESAENTLSESTIKHLLKLNRISKNYSSVIERIDLMNLTEESPHKCLEDKLSEISHSYVYKLTERGKYDKTLRQKRSLAGIHSRSTQLQTTKDIDQKMKKMLEKEKNKYQQQIGERNTYAHLESHIDASPRSKKRKLPILLSTSHSSQFKTPLASRLNTSGSSTSPPLPSHLAMKFRKNSRVTSLHTVLPVSTPSHSNNIPAASFSGNNTTDIQSQQLIENQKSTSVYLNNVSERILGNQEICQTPINPVTPVLDGADQGKEDIPDSILELKILIDSVKKKVNND
B5: poly(A)-binding protein Nab2 (protein, UniProt P32505 1-525)
chain: MSQEQYTENLKVIVAEKLAGIPNFNEDIKYVAEYIVLLIVNGGTVESVVDELASLFDSVSRDTLANVVQTAFFALEALQQGESAENIVSKIRMMNAQSLGQSDIAQQQQQQQQQQQPDIAQQQPQQQPQQQPQQQPQQQPQQQPQQQPQQQPQQQPQLQPLQPQLGTQNAMQTDAPATPSPISAFSGVVNAAAPPQFAPVDNSQRFTQRGGGAVGKNRRGGRGGNRGGRNNNSTRFNPLAKALGMAGESNMNFTPTKKEGRCRLFPHCPLGRSCPHAHPTKVCNEYPNCPKPPGTCEFLHPNEDEELMKEMERTREEFQKRKADLLAAKRKPVQTGIVLCKFGALCSNPSCPFGHPTPANEDAKVIDLMWCDKNLTCDNPECRKAHSSLSKIKEVKPISQKKAAPPPVEKSLEQCKFGTHCTNKRCKYRHARSHIMCREGANCTRIDCLFGHPINEDCRFGVNCKNIYCLFRHPPGRVLPEKKGAAPNSNVPTNERPFALPENAIIENAPPQTSFTHQEQDTEMN
B6: pre-mRNA surveillance factor Pml39 (protein, UniProt Q03760 1-334)
chain: MEKDALEVRLKSIRHSLDKNTKLLPGKYRNTLGERLITKWRYKKKSHNGSSMLPEKCKSHVQLYDDLVQESSKHFVGFRLHDLRALLKRICSIQNYTRHVLIEWDVRWVNPLTLASKGWEPYQSASQSQVPFKCCCCHAIMTIPLLKNGDDVADYTMKLNEKIWNSNIIGNHLQKCPWRENQVDLNKEYYLSSQNLIREIERIHTEIDRIVSGSNEFSLKRNSSRIFHYLSEKEIQKLAFFFDCKDYSLVGLLLLGYTKFQKDDLVQCTACFHRASLKKLEYTEFNGHALWCRYYNKELLPTMLLELIGKEDKLITKLGVGERLNKLEAVLQTL
B7: poly(A)-binding protein Gbp2 (protein, UniProt P25555 1-427)
chain: MERELGMYGNDRSRSRSPVRRRLSDDRDRYDDYNDSSSNNGNGSRRQRRDRGSRFNDRYDQSYGGSRYHDDRNWPPRRGGRGRGGSRSFRGGRGGGRGRTLGPIVERDLERQFDATKRNFENSIFVRNLTFDCTPEDLKELFGTVGEVVEADIITSKGHHRGMGTVEFTKNESVQDAISKFDGALFMDRKLMVRQDNPPPEAAKEFSKKATREEIDNGFEVFIINLPYSMNWQSLKDMFKECGHVLRADVELDFNGFSRGFGSVIYPTEDEMIRAIDTFNGMEVEGRVLEVREGRFNKRKNNDRYNQRREDLEDTRGTEPGLAQDAAVHIDETAAKFTEGVNPGGDRNCFIYCSNLPFSTARSDLFDLFGPIGKINNAELKPQENGQPTGVAVVEYENLVDADFCIQKLNNYNYGGCSLQISYARRD
B8: Cdc31, P06704 1-161 (protein)
chain: B3 chain

In one assay the target is T1, Nup133-GFP (S. cerevisiae) (UniProt P36161).
T1 sequence: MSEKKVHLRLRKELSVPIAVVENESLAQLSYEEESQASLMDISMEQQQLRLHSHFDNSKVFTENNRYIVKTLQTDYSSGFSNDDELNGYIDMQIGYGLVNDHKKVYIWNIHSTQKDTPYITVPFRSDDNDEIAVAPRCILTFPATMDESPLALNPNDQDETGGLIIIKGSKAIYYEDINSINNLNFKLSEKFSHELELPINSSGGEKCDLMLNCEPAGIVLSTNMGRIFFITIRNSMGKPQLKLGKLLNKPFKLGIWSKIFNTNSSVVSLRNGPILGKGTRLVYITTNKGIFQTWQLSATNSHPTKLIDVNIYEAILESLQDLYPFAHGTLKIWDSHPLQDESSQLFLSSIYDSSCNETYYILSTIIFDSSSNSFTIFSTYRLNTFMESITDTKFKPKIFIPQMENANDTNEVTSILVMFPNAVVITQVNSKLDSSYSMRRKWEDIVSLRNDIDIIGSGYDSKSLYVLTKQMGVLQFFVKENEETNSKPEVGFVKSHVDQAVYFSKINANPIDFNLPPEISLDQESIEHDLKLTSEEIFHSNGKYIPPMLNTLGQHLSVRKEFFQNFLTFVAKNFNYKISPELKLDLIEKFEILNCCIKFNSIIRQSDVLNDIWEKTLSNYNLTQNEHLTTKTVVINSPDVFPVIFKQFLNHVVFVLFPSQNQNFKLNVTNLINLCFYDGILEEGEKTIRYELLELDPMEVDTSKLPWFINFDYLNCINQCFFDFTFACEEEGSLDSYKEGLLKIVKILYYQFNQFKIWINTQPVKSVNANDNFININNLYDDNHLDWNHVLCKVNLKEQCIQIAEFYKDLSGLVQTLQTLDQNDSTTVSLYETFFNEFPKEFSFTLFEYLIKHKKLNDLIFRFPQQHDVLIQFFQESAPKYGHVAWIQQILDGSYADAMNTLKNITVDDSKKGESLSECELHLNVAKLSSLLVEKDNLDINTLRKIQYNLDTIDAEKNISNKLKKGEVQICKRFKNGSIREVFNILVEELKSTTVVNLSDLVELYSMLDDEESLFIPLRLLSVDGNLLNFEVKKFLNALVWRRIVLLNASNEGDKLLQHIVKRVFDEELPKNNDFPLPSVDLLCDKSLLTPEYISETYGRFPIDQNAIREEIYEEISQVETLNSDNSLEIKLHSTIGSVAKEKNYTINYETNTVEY
Kind of assay: condition: only in the flow-through after removal of Mlp1-PrA complexes.
Details: not given
B1: the binding entry was “no binding”. As to B2, the binding entry is “no binding”. Consider B3, for which the binding result is given as “no binding”. The same measure, in the same setting: then B4, with “no binding”.

The target in another assay is Mlp1-PrA (S. cerevisiae) (UniProt Q02455). Description: affinity purification with mass spectrometry.
Details: not given
For B1, the binding entry is “binds”. Same read-out and setting: then B5, with “binds”; and B2, with “binds”. On the same count and under the same terms, then B6, with “binds”; and B7, with “binds”; and B4, with “binds”.

For a further assay, the target named is T1, Nup133-GFP (S. cerevisiae). Description: affinity purification with mass spectrometry.
Details: not given
For B1, the binding result is reported as “binds weakly”. In the case of B2, the binding entry is listed as “binds weakly”.

On to B3, for which the binding result is recorded as “binds weakly”.

In the case of B4, the binding result was “binds weakly”.

The target in a further assay is Mlp1-PrA (S. cerevisiae), Q02455. Description: affinity purification with mass spectrometry. Conditions: remark: other sources report otherwise.
For B8, the binding result is “binds”.

Values taken from article doi:10.1101/2021.11.07.467636.
